# This is one part of the list. Repeats are few or missing, and single values can be far off.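 The apoptosis fraction was the count of cleaved-PARP antibody-stained nuclei relative to all DNA-stained nuclei, imaged in 1,536-well plates. Screening doses were set so most cells survived, and baseline and induced cleaved-PARP levels vary greatly across cell lines.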
# Key:
# Assay in all cases: cleaved PARP positive nuclei fraction relative to DMSO control; melanoma cells; higher = more apoptosis
# Conditions in all cases: library dose: low library concentration; 72 h
# 501Mel = system: 501Mel
# A101D = system: A101D
# A2058 = system: A2058
# C32 = system: C32
# CBRC008 = system: CBRC008 (line from a melanoma biopsy)
# CBRC014 = system: CBRC014 (line from a melanoma biopsy)
# CBRC016 = system: CBRC016 (line from a melanoma biopsy)
# CBRC017 = system: CBRC017 (line from a melanoma biopsy)
Structure (SMILES),cleaved PARP positive nuclei fraction (501Mel) [%],cleaved PARP positive nuclei fraction (A101D) [%],cleaved PARP positive nuclei fraction (A2058) [%],cleaved PARP positive nuclei fraction (C32) [%],cleaved PARP positive nuclei fraction (CBRC008) [%],cleaved PARP positive nuclei fraction (CBRC014) [%],cleaved PARP positive nuclei fraction (CBRC016) [%],cleaved PARP positive nuclei fraction (CBRC017) [%]
"CC[C@]1(O)C[C@H]2CN(CCc3c([nH]c4ccccc34)[C@@](C(=O)OC)(c3cc4c(cc3OC)N(C=O)[C@H]3[C@@](O)(C(=O)OC)[C@H](OC(C)=O)[C@]5(CC)C=CCN6CC[C@]43[C@@H]65)C2)C1 [vincristine] + N#Cc1c(O)c2c(-c3ccc(-c4ccccc4O)cc3)csc2[nH]c1=O [A769662] (first compound 0.0001 µM, partner dose 2 µM)",50.8,70.1,1610,327,249,98.3,114,99.3
"Cc1cc(Nc2cc(N3CCN(C)CC3)nc(Sc3ccc(NC(=O)C4CC4)cc3)n2)n[nH]1 [Tozasertib] + COc1ccc2c(c1)CCC1C2CCC2(C)C(NCCCCCCN3C(=O)C=CC3=O)CCC12 [U73122] (first compound 0.006 µM, partner dose 0.4 µM)",54.2,51.7,168,51.9,110,102,123,233
"Cc1cc(Nc2cc(N3CCN(C)CC3)nc(Sc3ccc(NC(=O)C4CC4)cc3)n2)n[nH]1 [Tozasertib] + CCCCCCCCCCCC1=C(O)C(=O)C=C(O)C1=O [Embelin] (first compound 0.006 µM, partner dose 1.2 µM)",52.8,13.8,82,34.6,46.4,84.6,129,93.4
"COc1cc([C@@H]2c3cc4c(cc3[C@@H](O[C@@H]3O[C@@H]5CO[C@@H](C)O[C@H]5[C@H](O)[C@H]3O)[C@H]3COC(=O)[C@H]23)OCO4)cc(OC)c1O [etoposide] + COc1ccc2c(c1)CCC1C2CCC2(C)C(NCCCCCCN3C(=O)C=CC3=O)CCC12 [U73122] (first compound 0.02 µM, partner dose 0.4 µM)",57.7,14.3,98.2,42.5,90.3,214,134,96.6
"COc1cc([C@@H]2c3cc4c(cc3[C@@H](O[C@@H]3O[C@@H]5CO[C@@H](C)O[C@H]5[C@H](O)[C@H]3O)[C@H]3COC(=O)[C@H]23)OCO4)cc(OC)c1O [etoposide] + N#Cc1c(O)c2c(-c3ccc(-c4ccccc4O)cc3)csc2[nH]c1=O [A769662] (first compound 0.02 µM, partner dose 2 µM)",145,17.1,204,40.9,81.6,106,45.6,85.3
"Cc1cn(-c2cc(NC(=O)c3ccc(C)c(Nc4nccc(-c5cccnc5)n4)c3)cc(C(F)(F)F)c2)cn1 [nilotinib] + COc1cc(N2CCC(N3CCN(C)CC3)CC2)ccc1Nc1ncc(Cl)c(Nc2ccccc2S(=O)(=O)C(C)C)n1 [NVP-TAE684] (first compound 0.2 µM, partner dose 0.08 µM)",132,35,182,48.8,97.4,97.2,85.7,94.3
"N#CC[C@H](C1CCCC1)n1cc(-c2ncnc3[nH]ccc23)cn1 [ruxolitinib] + O=c1cc(-c2cccc3c2Sc2ccccc2S3)oc(N2CCOCC2)c1 [KU55933] (first compound 1 µM, partner dose 1 µM)",78.2,24.6,101,67.5,211,83.6,85.3,92.5
"N#CC[C@H](C1CCCC1)n1cc(-c2ncnc3[nH]ccc23)cn1 [ruxolitinib] + COc1ccc2c(c1)CCC1C2CCC2(C)C(NCCCCCCN3C(=O)C=CC3=O)CCC12 [U73122] (first compound 1 µM, partner dose 0.4 µM)",67.8,27.1,39.2,35.2,112,84.6,139,131
"Cc1cn(-c2cc(NC(=O)c3ccc(C)c(Nc4nccc(-c5cccnc5)n4)c3)cc(C(F)(F)F)c2)cn1 [nilotinib] + Oc1cc(-c2nc(-c3ccccc3)[nH]c2-c2ccncc2)ccc1Cl [L779450] (first compound 0.2 µM, partner dose 0.2 µM)",93.2,49.5,87.4,88.5,96.4,112,70,84.5
"Cc1ccc(Nc2nccc(N(C)c3ccc4c(C)n(C)nc4c3)n2)cc1S(N)(=O)=O [Pazopanib] + CCc1ccc(CCOc2ccc(CC3SC(=O)NC3=O)cc2)nc1 [pioglitazone] (first compound 0.4 µM, partner dose 2 µM)",139,16.8,87.1,50.2,147,212,78.4,71.3
"N#CC[C@H](C1CCCC1)n1cc(-c2ncnc3[nH]ccc23)cn1 [ruxolitinib] + CCCCCCCCCCCC1=C(O)C(=O)C=C(O)C1=O [Embelin] (first compound 1 µM, partner dose 1.2 µM)",63.8,23.7,149,27,90.5,95.4,97.3,88.1
"Cc1cn(-c2cc(NC(=O)c3ccc(C)c(Nc4nccc(-c5cccnc5)n4)c3)cc(C(F)(F)F)c2)cn1 [nilotinib] + COc1cc2ncnc(Nc3ccc(Oc4ccccc4)cc3)c2cc1OC [SrcI1] (first compound 0.2 µM, partner dose 2 µM)",139,38.7,142,82.3,230,78.6,47.3,114
"N#CC[C@H](C1CCCC1)n1cc(-c2ncnc3[nH]ccc23)cn1 [ruxolitinib] + Cc1cc([N+](=O)[O-])ccc1NS(=O)(=O)c1cc(Cl)ccc1Cl [FH535] (first compound 1 µM, partner dose 1 µM)",166,24,90.9,48.4,339,132,1820,185
"CC[C@]1(O)C[C@H]2CN(CCc3c([nH]c4ccccc34)[C@@](C(=O)OC)(c3cc4c(cc3OC)N(C=O)[C@H]3[C@@](O)(C(=O)OC)[C@H](OC(C)=O)[C@]5(CC)C=CCN6CC[C@]43[C@@H]65)C2)C1 [vincristine] + O=S(=O)(c1ccccc1)N(CC(F)(F)F)c1ccc(C(O)(C(F)(F)F)C(F)(F)F)cc1 [T0901317] (first compound 0.0001 µM, partner dose 1.4 µM)",83.1,66.7,1060,248,178,110,107,68.8
"O=C(Nc1cc(C(F)(F)F)cc(C(F)(F)F)c1)c1cc(Cl)ccc1O + COc1cc2ncnc(Nc3ccc(Oc4ccccc4)cc3)c2cc1OC [SrcI1] (first compound 0.016 µM, partner dose 2 µM)",192,37.7,63.9,121,391,105,74.9,132
"N#CC[C@H](C1CCCC1)n1cc(-c2ncnc3[nH]ccc23)cn1 [ruxolitinib] + COC(=O)c1sccc1S(=O)(=O)Nc1ccc(Nc2ccccc2)cc1OC [GSK0660] (first compound 1 µM, partner dose 1 µM)",76,17,138,76,85.1,86.9,28.3,94.1
"Cc1ccc(Nc2nccc(N(C)c3ccc4c(C)n(C)nc4c3)n2)cc1S(N)(=O)=O [Pazopanib] + O=c1cc(-c2cccc3c2Sc2ccccc2S3)oc(N2CCOCC2)c1 [KU55933] (first compound 0.4 µM, partner dose 1 µM)",47.8,102,197,159,42.3,120,85.5,98.6
"O=C(Nc1cc(C(F)(F)F)cc(C(F)(F)F)c1)c1cc(Cl)ccc1O + c1cc(-c2cnn3cc(-c4ccc(OCCN5CCCCC5)cc4)cnc23)ccn1 [Dorsomorphin] (first compound 0.016 µM, partner dose 0.4 µM)",94.4,25.2,32.7,38.6,116,96.5,42.5,99.1
"COc1cc([C@@H]2c3cc4c(cc3[C@@H](O[C@@H]3O[C@@H]5CO[C@@H](C)O[C@H]5[C@H](O)[C@H]3O)[C@H]3COC(=O)[C@H]23)OCO4)cc(OC)c1O [etoposide] + CCCCCCCCCCCC1=C(O)C(=O)C=C(O)C1=O [Embelin] (first compound 0.02 µM, partner dose 1.2 µM)",68,21,147,88.5,80,99.2,89.1,121
"Cc1ccc(Nc2nccc(N(C)c3ccc4c(C)n(C)nc4c3)n2)cc1S(N)(=O)=O [Pazopanib] + CCCCCCCCCCCC1=C(O)C(=O)C=C(O)C1=O [Embelin] (first compound 0.4 µM, partner dose 1.2 µM)",65.1,14.2,157,39.8,118,112,64,96.4

# Exported tab-delimited: entries from further up
Structure (SMILES)	cleaved PARP positive nuclei fraction (501Mel) [%]	cleaved PARP positive nuclei fraction (A101D) [%]	cleaved PARP positive nuclei fraction (A2058) [%]	cleaved PARP positive nuclei fraction (C32) [%]	cleaved PARP positive nuclei fraction (CBRC008) [%]	cleaved PARP positive nuclei fraction (CBRC014) [%]	cleaved PARP positive nuclei fraction (CBRC016) [%]	cleaved PARP positive nuclei fraction (CBRC017) [%]
Cc1cc(Nc2cc(N3CCN(C)CC3)nc(Sc3ccc(NC(=O)C4CC4)cc3)n2)n[nH]1 [Tozasertib] + COc1ccc2c(c1)CCC1C2CCC2(C)C(NCCCCCCN3C(=O)C=CC3=O)CCC12 [U73122] (first compound 0.006 µM, partner dose 0.4 µM)	54.2	51.7	168	51.9	110	102	123	233
COc1cc([C@@H]2c3cc4c(cc3[C@@H](O[C@@H]3O[C@@H]5CO[C@@H](C)O[C@H]5[C@H](O)[C@H]3O)[C@H]3COC(=O)[C@H]23)OCO4)cc(OC)c1O [etoposide] + COc1ccc2c(c1)CCC1C2CCC2(C)C(NCCCCCCN3C(=O)C=CC3=O)CCC12 [U73122] (first compound 0.02 µM, partner dose 0.4 µM)	57.7	14.3	98.2	42.5	90.3	214	134	96.6
N#CC[C@H](C1CCCC1)n1cc(-c2ncnc3[nH]ccc23)cn1 [ruxolitinib] + CCCCCCCCCCCC1=C(O)C(=O)C=C(O)C1=O [Embelin] (first compound 1 µM, partner dose 1.2 µM)	63.8	23.7	149	27	90.5	95.4	97.3	88.1
COc1cc([C@@H]2c3cc4c(cc3[C@@H](O[C@@H]3O[C@@H]5CO[C@@H](C)O[C@H]5[C@H](O)[C@H]3O)[C@H]3COC(=O)[C@H]23)OCO4)cc(OC)c1O [etoposide] + CCCCCCCCCCCC1=C(O)C(=O)C=C(O)C1=O [Embelin] (first compound 0.02 µM, partner dose 1.2 µM)	68	21	147	88.5	80	99.2	89.1	121
Cc1ccc(Nc2nccc(N(C)c3ccc4c(C)n(C)nc4c3)n2)cc1S(N)(=O)=O [Pazopanib] + CCCCCCCCCCCC1=C(O)C(=O)C=C(O)C1=O [Embelin] (first compound 0.4 µM, partner dose 1.2 µM)	65.1	14.2	157	39.8	118	112	64	96.4
